Data as given in patent publication US20120028811.
Construct, isoform or probe ends are uncertain for at least one entry.

Protein sequences, listed by entry. Tags and fused reporters are not part of them. Lines headed by an entry give the natural chain unless they say otherwise; changes in a name come on top.
UniProt P13393: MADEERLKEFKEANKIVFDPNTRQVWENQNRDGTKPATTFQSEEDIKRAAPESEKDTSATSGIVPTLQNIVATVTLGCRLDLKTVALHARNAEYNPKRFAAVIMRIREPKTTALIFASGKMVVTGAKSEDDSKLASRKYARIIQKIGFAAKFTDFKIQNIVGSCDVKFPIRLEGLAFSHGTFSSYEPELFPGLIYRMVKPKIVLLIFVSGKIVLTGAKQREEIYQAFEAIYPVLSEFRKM

Columns and labels:
[1] = target: TATA-binding protein (TBP) (UniProt P13393); test: EMSA; conditions: CITED earlier measurement for TBPApt #17 (same variable sequence); purified recombinant protein; label: Cy3 (3'-end, Cy3-dUTP by TdT)
[2] = target: TATA-binding protein (TBP) (UniProt P13393); test: binding assay; conditions: sol-gel array; lower binding activity than ms-6.16; purified recombinant protein; label: Cy3 (3'-end, Cy3-dUTP by TdT)

Sequence	binding result [1]	binding result [2]
ACGACACCGAAGGCGCCCCGAAGGGGGGCAAGGAGCCAUACCAAACCAGG [ms-6.16 (= TBPApt #17)]	binds	
CAUGGGCAAGACAAGACAAAUACUGUCAGUCGACCAUGAGCCUGACCGCC [ms-6.4]		binds
